Laboratory results taken from patent publication US20080026943A1, “Phenyl-Substituted [1,2]-Oxazine-3,5-Dione and Dihydropyrone Derivatives” (priority 2004, published 2008).
Some results were stated once for a whole list of compounds, not compound by compound.

Experiments:
Format in all cases: in vivo
[1] = test system: caterpillars of the army worm (Spodoptera frugiperda); assay: Spodoptera frugiperda test (SPODFR spray treatment); conditions: 500 g/ha; sprayed maize leaf discs
[2] = test system: larvae of the mustard beetle (Phaedon cochleariae); assay: Phaedon test (PHAECO spray treatment); conditions: 500 g/ha; sprayed Chinese cabbage leaf discs
[3] = test system: green peach aphid (Myzus persicae); assay: Myzus test (MYZUPE spray treatment); conditions: 500 g/ha; sprayed Chinese cabbage leaf discs
[4] = test system: greenhouse red spider mite (Tetranychus urticae); assay: Tetranychus test, OP-resistent (TETRUR spray treatment); conditions: 100 g/ha; sprayed bean leaf discs
[5] = test system: greenhouse red spider mite (Tetranychus urticae); assay: Tetranychus test, OP-resistent (TETRUR), plant immersion; conditions: 100 ppm; bean plants immersed
[6] = test system: larvae of the mustard beetle (Phaedon cochleariae); assay: Phaedon cochleariae - larvae test (PHAECO), leaf immersion; conditions: 500 ppm; cabbage leaves immersed
[7] = test system: caterpillars of the army worm (Spodoptera frugiperda); assay: Spodoptera frugiperda test (SPODFR), leaf immersion; conditions: 500 ppm; cabbage leaves immersed
[8] = test system: Meloidogyne incognita; assay: Meloidogyne test (MELGIN); conditions: 20 ppm; lettuce in sand

Cc1ccc(-c2ccc(Cl)cc2)cc1C1(Cl)C(=O)N(C)OC(C)(C)C1=O (centres unmarked) [Example I-1-5]
activity (effect in %, caterpillars killed) [1]: ≥ 80%
activity (effect in %, beetle larvae killed) [2]: ≥ 80%

Cc1ccc(-c2ccc(C(F)(F)F)cc2)cc1C1(Cl)C(=O)N(C)OC(C)(C)C1=O (centres unmarked) [Example I-1-12]
activity (effect in %, aphids killed) [3]: ≥ 90%
activity (effect in %, spider mites killed) [4]: ≥ 80%
activity (effect in %, beetle larvae killed) [2]: ≥ 80%

Cc1ccc(-c2ccc(Cl)cc2)cc1C1(Cl)C(=O)OC(C)(C)C(C)(C)C1=O (centres unmarked) [Example I-2-10]
activity (effect in %, caterpillars killed) [1]: ≥ 80%
activity (effect in %, spider mites killed) [5]: ≥ 80%
activity (effect in %, beetle larvae killed) [2]: ≥ 80%

CN1OC2(CCC2)C(=O)C(Cl)(c2cc(-c3ccc(Cl)cc3)ccc2Cl)C1=O (centres unmarked) [Example I-1-4]
activity (effect in %, spider mites killed) [4]: ≥ 80%
activity (effect in %, caterpillars killed) [1]: ≥ 80%
activity (effect in %, beetle larvae killed) [2]: ≥ 80%

Cc1ccc(-c2ccc(Cl)cc2)cc1C1(Cl)C(=O)OC(C)(C)C2(CCOCC2)C1=O (centres unmarked) [Example I-2-12]
activity (effect in %, aphids killed) [3]: ≥ 90%
activity (effect in %, spider mites killed) [4]: ≥ 80%
activity (effect in %, caterpillars killed) [1]: ≥ 80%
activity (effect in %, beetle larvae killed) [2]: ≥ 80%

CC1(C)OC(=O)C(Cl)(c2cc(-c3ccc(F)cc3)ccc2Cl)C(=O)C1(C)C (centres unmarked) [Example I-2-4]
activity (effect in %, aphids killed) [3]: ≥ 90%
activity (effect in %, caterpillars killed) [1]: ≥ 80%
activity (effect in %, spider mites killed) [5]: ≥ 80%
activity (effect in %, beetle larvae killed) [2]: ≥ 80%

CC1(C)OC(=O)C(Cl)(c2cc(-c3ccc(F)cc3F)ccc2Cl)C(=O)C1(C)C (centres unmarked) [Example I-2-5]
activity (effect in %, aphids killed) [3]: ≥ 90%
activity (effect in %, caterpillars killed) [1]: ≥ 80%
activity (effect in %, beetle larvae killed) [2]: ≥ 80%

CC1(C)OC(=O)C(Cl)(c2cc(-c3ccc(C(F)(F)F)cc3)ccc2Cl)C(=O)C1(C)C (centres unmarked) [Example I-2-3]
activity (effect in %, aphids killed) [3]: ≥ 90%
activity (effect in %, caterpillars killed) [1]: ≥ 80%
activity (effect in %, spider mites killed) [5]: ≥ 80%
activity (effect in %, beetle larvae killed) [2]: ≥ 80%

CC1(C)COC(=O)C(Cl)(c2cc(-c3ccc(F)cc3)ccc2Cl)C1=O (centres unmarked) [Example I-2-14]
activity (effect in %, aphids killed) [3]: ≥ 90%
activity (effect in %, caterpillars killed) [1]: ≥ 80%
activity (effect in %, beetle larvae killed) [2]: ≥ 80%

CC1(C)OC(=O)C(Cl)(c2cc(-c3ccc(Cl)cc3)ccc2Cl)C(=O)C1(C)C (centres unmarked) [Example I-2-1]
activity (kill rate in %) [6]: ≥ 80%
activity (kill rate in %) [7]: ≥ 80%
activity (effect in %, spider mites killed) [5]: ≥ 80%
activity (nematicidal effect in % from the formation of galls) [8]: ≥ 80%

CC1(C)OC(=O)C(Cl)(c2cc(-c3ccc(Cl)cc3Cl)ccc2Cl)C(=O)C1(C)C (centres unmarked) [Example I-2-6]
activity (effect in %, caterpillars killed) [1]: ≥ 80%

Cc1ccc(-c2ccc(Cl)cc2)cc1C1(Cl)C(=O)OCC(C)(C)C1=O (centres unmarked) [Example I-2-13]
activity (effect in %, aphids killed) [3]: ≥ 90%
activity (effect in %, spider mites killed) [4]: ≥ 80%
activity (effect in %, caterpillars killed) [1]: ≥ 80%
activity (effect in %, beetle larvae killed) [2]: ≥ 80%

Cc1ccc(-c2ccc(Cl)cc2)cc1C1(Cl)C(=O)OCC2(CCC2)C1=O (centres unmarked) [Example I-2-15]
activity (effect in %, aphids killed) [3]: ≥ 90%
activity (effect in %, spider mites killed) [4]: ≥ 80%
activity (effect in %, caterpillars killed) [1]: ≥ 80%
activity (effect in %, beetle larvae killed) [2]: ≥ 80%

Cc1ccc(-c2ccc(Cl)cc2)cc1C1(Cl)C(=O)N(C)OC2(CCC2)C1=O (centres unmarked) [Example I-1-3]
activity (effect in %, spider mites killed) [4]: ≥ 80%
activity (effect in %, caterpillars killed) [1]: ≥ 80%
activity (effect in %, beetle larvae killed) [2]: ≥ 80%

CN1OC(C)(C)C(=O)C(Cl)(c2cc(-c3ccc(Cl)cc3)ccc2Cl)C1=O (centres unmarked) [Example I-1-11]
activity (effect in %, caterpillars killed) [1]: ≥ 80%
activity (effect in %, beetle larvae killed) [2]: ≥ 80%

CCc1cc(Br)ccc1C1(Cl)C(=O)N(C)OC(C)(C)C1=O (centres unmarked) [Example I-1-10]
activity (effect in %, aphids killed) [3]: ≥ 90%
activity (effect in %, caterpillars killed) [1]: ≥ 80%
activity (effect in %, beetle larvae killed) [2]: ≥ 80%
